No constants are given. Whether binding was seen depends on the method and setting. In cells and extracts the contact can be indirect.
B1: Pcdh7 (protein, UniProt O60245 29-1069)
chain: AAKQLLRYRLAEEGPADVRIGNVASDLGIVTGSGEVTFSLESGSEYLKIDNLTGELSTSERRIDREKLPQCQMIFDENECFLDFEVSVIGPSQSWVDLFEGQVIVLDINDNTPTFPSPVLTLTVEENRPVGTLYLLPTATDRDFGRNGIERYELLQEPGGGGSGGESRRAGAADSAPYPGGGGNGASGGGSGGSKRRLDASEGGGGTNPGGRSSVFELQVADTPDGEKQPQLIVKGALDREQRDSYELTLRVRDGGDPPRSSQAILRVLITDVNDNSPRFEKSVYEADLAENSAPGTPILQLRAADLDVGVNGQIEYVFGAATESVRRLLRLDETSGWLSVLHRIDREEVNQLRFTVMARDRGQPPKTDKATVVLNIKDENDNVPSIEIRKIGRIPLKDGVANVAEDVLVDTPIALVQVSDRDQGENGVVTCTVVGDVPFQLKPASDTEGDQNKKKYFLHTSTPLDYEATREFNVVIVAVDSGSPSLSSNNSLIVKVGDTNDNPPMFGQSVVEVYFPENNIPGERVATVLATDADSGKNAEIAYSLDSSVMGIFAIDPDSGDILVNTVLDREQTDRYEFKVNAKDKGIPVLQGSTTVIVQVADKNDNDPKFMQDVFTFYVKENLQPNSPVGMVTVMDADKGRNAEMSLYIEENNNIFSIENDTGTIYSTMSFDREHQTTYTFRVKAVDGGDPPRSATATVSLFVMDENDNAPTVTLPKNISYTLLPPSSNVRTVVATVLATDSDDGINADLNYSIVGGNPFKLFEIDPTSGVVSLVGKLTQKHYGLHRLVVQVNDSGQPSQSTTTLVHVFVNESVSNATAIDSQIARSLHIPLTQDIAGDPSYEISKQRLSIVIGVVAGIMTVILIILIVVMARYCRSKNKNGYEAGKKDHEDFFTPQQHDKSKKPKKDKKNKKSKQPLYSSIVTVEASKPNGQRYDSVNEKLSDSPSMGRYRSVNGGPGSPDLARHYKSSSPLPTVQLHPQSPTAGKKHQAVQDLPPANTFVGAGDNISIGSDHCSEYSCQTNNKYSKQMRLHPYITVFG

Assays:
[1] = molecular target: T1, Pcdh7 (not stated (lysate of HEK293T cells or zebrafish embryos)) (UniProt O60245); assay: co-IP; HEK293T cells or zebrafish embryos homogenized in IP buffer (50 mM Tris-HCl pH 7.4, 150 mM NaCl, 2 mM EDTA, 1% NP-40, protease inhibitors); supernatant with beads and antibody overnight (anti-Pcdh7 Santa Cruz sc-517042 named); Western blot; both directions reported
T1 sequence: B1 chain

[2] = molecular target: Dopey2 (not stated (lysate of HEK293T cells or zebrafish embryos)); assay: as above

Molecule	binding [1]	binding [2]
Dopey2	no binding	
B1		no binding
